Reference: PubChem BioAssay AID602196 (INSERM, 2012)
Purpose: 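Knock-downs that protect lung cancer cells from cisplatin or sensitise them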. Cells: human A549 lung cancer cells. Reagent: siRNA pair against human genes. Timing: 48 h transfection before cisplatin; time from cisplatin to read-out not stated. Challenge: cisplatin at a dose killing half of control-siRNA cells; exact dose and duration not given. Measurement: 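Cisplatin cell death as a shift from the 50% death seen with control siRNA; siRNAs toxic or growth-blocking alone scored 0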. Scale: two-siRNA summed score (-2 to +2): higher = both siRNAs protect from cisplatin killing; -2 means both sensitise. Call rule: 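siRNAs harmful alone (LDH or WST-1) get 0; others get +1 for less and -1 for more cisplatin killing; genes are active when the two siRNAs give the same sign, summing to ±2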. Meaning of the calls: active = both siRNAs shift cisplatin killing the same way; inactive = no consistent shift, or siRNA harmful alone.
Shown is an unselected part of about 23,000 reagents. Of all reagents, 455 (2%) are marked active. 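Active includes both protection and sensitisation; some change values fall well beyond the stated -50 to +50 range.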 Further read-outs or replicates are left out here. Not stated in the record: the amount of reagent.

With PRDM12 (PR/SET domain 12), what does the deposit list?
two-siRNA summed score (-2 to +2): 0; Call: inactive

With GATAD2B (GATA zinc finger domain containing 2B), what does the deposit list?
two-siRNA summed score (-2 to +2): 1; Call: inactive

For LOC285849, how do the results read?
two-siRNA summed score (-2 to +2): 0; Call: inactive

For LOC146439, what was measured?
two-siRNA summed score (-2 to +2): 0; Call: inactive

For RAB1A (RAB1A, member RAS oncogene family), what was measured?
two-siRNA summed score (-2 to +2): 0; Call: inactive

What is on record for LOC442227?
two-siRNA summed score (-2 to +2): 1; Call: inactive

Which result is listed for MGAT4FP (MGAT4 family member F, pseudogene)?
two-siRNA summed score (-2 to +2): 1; Call: inactive

What is on record for TACSTD2 (tumor associated calcium signal transducer 2)?
two-siRNA summed score (-2 to +2): 0; Call: inactive

How did the screen score OR13C5 (olfactory receptor family 13 subfamily C member 5)?
two-siRNA summed score (-2 to +2): 0; Call: inactive

What is on record for KRTAP12-4 (keratin associated protein 12-4)?
two-siRNA summed score (-2 to +2): 2; Call: active

What is on record for NUPR1 (nuclear protein 1, transcriptional regulator)?
two-siRNA summed score (-2 to +2): 0; Call: inactive

With YY2 (YY2 transcription factor), how do the results read?
two-siRNA summed score (-2 to +2): 1; Call: inactive

Records listed above with an active call, once more:
KRTAP12-4 (keratin associated protein 12-4) → two-siRNA summed score (-2 to +2): 2; Call: active

The results go on.
How did the screen score VWA2 (von Willebrand factor A domain containing 2)?
two-siRNA summed score (-2 to +2): 0; Call: inactive

What is on record for CD151 (CD151 molecule (Raph blood group))?
two-siRNA summed score (-2 to +2): -1; Call: inactive

Which result is listed for LRP1 (LDL receptor related protein 1)?
two-siRNA summed score (-2 to +2): 0; Call: inactive

With PACSIN3 (protein kinase C and casein kinase substrate in neurons 3), what was measured?
two-siRNA summed score (-2 to +2): 1; Call: inactive

With CACNB1 (calcium voltage-gated channel auxiliary subunit beta 1), how do the results read?
two-siRNA summed score (-2 to +2): -1; Call: inactive

With CCL21 (C-C motif chemokine ligand 21), how do the results read?
two-siRNA summed score (-2 to +2): -1; Call: inactive

For LINC01060 (long independently transcribed non-coding RNA 1060), how do the results read?
two-siRNA summed score (-2 to +2): 0; Call: inactive

Which result is listed for ZRANB1 (zinc finger RANBP2-type containing 1)?
two-siRNA summed score (-2 to +2): -1; Call: inactive

With CRTAC1 (cartilage acidic protein 1), what was measured?
two-siRNA summed score (-2 to +2): 0; Call: inactive
